The nature of assay [1]: qHTS Assay for Modulators of Human Peripheral Myelin Protein 22 (PMP22) Expression/Activity (AID 1967). The note with it: Cell-based PMP22 reporter, dual-color luciferase ratio. The method in brief:
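Luminescence ratio of Pmp22 promoter-driven green luciferase to EF-alpha-driven red luciferase, in engineered mouse MSC80 Schwann cells, served as read-out. Compounds were incubated 24h; untreated cells defined 0% Activity; curves were classified by r2, magnitude and activity.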

Assay [2] in a line: qHTS Validation Assay to Find Inhibitors of Chronic Active B-Cell Receptor Signaling (AID 485345). The settings on record: ABC-DLBCL cells, chronic BCR signaling reporter. Put shortly: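 TMD8 ABC-DLBCL cells stably carrying doxycycline-inducible IkappaBalpha–green luciferase fusion plus unfused red luciferase; compounds 46 uM to 3 nM, 4 h at 37C with doxycycline. Corrected green/red luminescence ratio normalized to 10 uM MG-132 and basal cell wells; curves fitted.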
(In general: qHTS replaces the single test concentration by a dilution series.)

Assay [3] in a line: A High-Content qHTS Against Drug Library for the Identification of Small Molecules that Inhibit DYT1 Early Onset Primary Dystonia-Associated Cell Pathology (AID 1645839). The note with it: HEK293 Flp-In EGFP-delE TorsinA, punctate imaging, 48 h; measured here: cell count cytotoxicity. The method in brief:
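Cells were seeded and left for 24 h, then dosed with compound alongside tetracycline induction of mutant EGFP-TorsinA. They were incubated for 48 h, fixed in 4% paraformaldehyde, permeabilized and imaged for mislocalization (%pathology) and cell count.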

Assay [4] is described as follows: qHTS for identification of novel therapeutic agents for treatment of microphthalmiaassociated transcription factor (MiT) renal cell carcinoma (RCC) (AID 1963991). The settings on record: CellTiter-Glo, 48 h; for z-score: stronger effect = lower value. Put shortly:
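Three TFE3-fusion RCC cell lines (UOK109, UOK124, UOK145), 500 cells/well, were exposed to the 1912-compound MIPE 4.0 library for 48 hours at 37 C. Viability was read by CellTiter-Glo luminescence, normalised to DMSO (100%) and empty wells (0%), with 11-concentration curve fits.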

Setting [5] is: measured here: red reporter channel AC50, EF-alpha promoter control reporter in MSC80 mouse Schwann cells.
Where [6] appears, read: TFE3-RCC UOK109 viability, measured here: UOK109 Z-AUC.
Setting [7] is: TFE3-RCC viability, measured here: UOK124 Z-AUC.
Setting [8] is: TFE3-RCC viability, measured here: UOK124 cell viability.
[9] abbreviates: TFE3-RCC viability, measured here: UOK145 Z-AUC.
Setting [10] is: TFE3-RCC viability, measured here: UOK145 cell viability.

Structures are written as SMILES. The list shows a part of the results. The main result of the screen is listed elsewhere. These columns were measured beside it and carry no call. Compounds called inactive in the main read-out are mostly missing here. Potencies come from curve fits of mixed quality, noted in brackets.

AC50 and z-score data for five molecules are collected here from PubChem BioAssay (NCATS).

For orientation: AC50 means the midpoint of the concentration-response curve, whichever way the signal moves.

For `Cc1cnc(NC(=O)C2=C(O)c3ccccc3S(=O)(=O)N2C)s1`, the AC50 is 60.1 µM [falling, partial curve, poor fit] in assay [1] (setting [5]); 18.4 µM [falling, single point] in assay [2] (measured here: CBG/CBR ratio read-out); 29.1 µM [falling, single point] in assay [2] (measured here: CBR control luciferase (viability counter)); 31.6 µM [rising, single point] in assay [3].
With `CCNC(=O)N1CCN(CCCC(c2ccc(F)cc2)c2ccc(F)cc2)CC1`, the AC50 in assay [1] (measured here: green reporter channel AC50, mouse Pmp22 promoter in mouse Schwann cells) was 67.5 µM [falling, partial curve]; in assay [1] (setting [5]), 67.5 µM [falling, partial curve]; in assay [3], 12.6 µM [falling, partial curve].
On to `COc1cc2c(N3CCN(C(=O)Nc4ccc(OC(C)C)cc4)CC3)ncnc2cc1OCCCN1CCCCC1`, for which the AC50 in assay [3] is 11.2 µM [falling, partial curve, poor fit]; in assay [4] (setting [8]), 23.5 µM [falling, single point]; in assay [4] (setting [10]), 37.2 µM [falling, single point]. Also, the z-score in assay [4] (setting [6]) was 0.378; in assay [4] (setting [7]), -2.57; in assay [4] (setting [9]), 0.104.
For the molecule `CCOC(=O)[C@H](CCc1ccccc1)N[C@H]1CCc2ccccc2N(CC(=O)O)C1=O`, the AC50 is 2.24 µM [falling, full curve, poor fit] in assay [3]; 20.9 µM [falling, partial curve] in assay [4] (setting [8]); 26.4 µM [falling, partial curve] in assay [4] (setting [10]). For the same molecule, the z-score in assay [4] (setting [6]) was 0.103; in assay [4] (setting [7]), -0.0662; in assay [4] (setting [9]), 0.234.
As to `O=C(Nc1cccc2c(=O)cc(-c3nn[nH]n3)oc12)c1ccc(OCCCCc2ccccc2)cc1`, the AC50 in assay [3] was 17.8 µM [falling, partial curve, poor fit]; in assay [4] (setting [8]), 29.6 µM [falling, single point]. Besides, the z-score in assay [4] (setting [6]) is 0.0499; in assay [4] (setting [7]), -0.096; in assay [4] (setting [9]), 0.138.
